Data source: PubChem BioAssay AID686943 (Drosophila RNAi Screening Center, 2013)
In all, the deposit lists about 23,000 reagents; shown is a random part of those that have a named target and a result. 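Extra replicates exist only for a retested subset of genes; insulin dose and duration not given; both raised and lowered dpERK matter.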 A plus sign joins genes that one reagent is predicted to hit. Further read-outs or replicates are left out here. The record does not give: the amount of reagent, the time to read-out.

- Assay: 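Knockdowns that increase or decrease active ERK after insulin receptor stimulation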 (primary screen)
- Cells: Drosophila S2R+ haemocyte-like cells expressing YFP-tagged ERK (Rolled)
- Reagents: long dsRNA against Drosophila genes
- Conditions: insulin stimulation versus unstimulated cells; dose and duration not given
- Detection: 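Per-plate z-scores of phospho-ERK immunostaining normalised to YFP-tagged ERK, measured with and without insulin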
- Reading the numbers: replicate 1, z-score of dpERK with insulin and replicate 2, z-score of dpERK with insulin: higher = more active ERK per ERK-YFP after insulin

{"gene": "Mic26-27", "dsRNA": "DRSC15913", "replicate 1, z-score of dpERK with insulin": 0.29, "replicate 2, z-score of dpERK with insulin": -0.04}
{"gene": "Hrd3", "dsRNA": "DRSC14156", "replicate 1, z-score of dpERK with insulin": 1.93, "replicate 2, z-score of dpERK with insulin": 0.84}
{"gene": "CG42362 + CG42363", "dsRNA": "DRSC04265", "replicate 1, z-score of dpERK with insulin": -0.26, "replicate 2, z-score of dpERK with insulin": -0.78}
{"gene": "wtrw", "dsRNA": "DRSC14241", "replicate 1, z-score of dpERK with insulin": 0.8, "replicate 2, z-score of dpERK with insulin": 1.83}
{"gene": "wtrw", "dsRNA": "DRSC15278", "replicate 1, z-score of dpERK with insulin": 0.59, "replicate 2, z-score of dpERK with insulin": -0.68}
{"gene": "CG42249", "dsRNA": "DRSC19383", "replicate 1, z-score of dpERK with insulin": 0.38, "replicate 2, z-score of dpERK with insulin": -0.24}
{"gene": "CG42249", "dsRNA": "DRSC19826", "replicate 1, z-score of dpERK with insulin": -0.23, "replicate 2, z-score of dpERK with insulin": 1.01}
{"gene": "CG42331", "dsRNA": "DRSC14633", "replicate 1, z-score of dpERK with insulin": -0.93, "replicate 2, z-score of dpERK with insulin": 0.36}
{"gene": "CG42331", "dsRNA": "DRSC16126", "replicate 1, z-score of dpERK with insulin": 0.67, "replicate 2, z-score of dpERK with insulin": 0.47}
{"gene": "CG42304 + Snup", "dsRNA": "DRSC08276", "replicate 1, z-score of dpERK with insulin": 0.27, "replicate 2, z-score of dpERK with insulin": 0.45}
{"gene": "CG42304 + Snup", "dsRNA": "DRSC08277", "replicate 1, z-score of dpERK with insulin": 0.13, "replicate 2, z-score of dpERK with insulin": 0.4}
{"gene": "CG42304 + Snup", "dsRNA": "DRSC22781", "replicate 1, z-score of dpERK with insulin": -0.21, "replicate 2, z-score of dpERK with insulin": 0.18}

Targets listed so far whose target name begins with W or w:
{"gene": "wtrw", "dsRNA": "DRSC14241", "replicate 1, z-score of dpERK with insulin": 0.8, "replicate 2, z-score of dpERK with insulin": 1.83}
{"gene": "wtrw", "dsRNA": "DRSC15278", "replicate 1, z-score of dpERK with insulin": 0.59, "replicate 2, z-score of dpERK with insulin": -0.68}
